# The other results are listed elsewhere or left out. Many values rest on one well or one pass, so single values are uncertain.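 The apoptosis fraction was the count of cleaved-PARP antibody-stained nuclei relative to all DNA-stained nuclei, imaged in 1,536-well plates. Screening doses were set so most cells survived, and baseline and induced cleaved-PARP levels vary greatly across cell lines.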
# Experiments:
# Test in all cases: cleaved PARP positive nuclei fraction relative to DMSO control; melanoma cells; higher = more apoptosis
# Settings in all cases: library dose: low library concentration; 72 h
# CBRC034 = tested on: CBRC034 (line from a melanoma biopsy)
# COLO792 = tested on: COLO792
# COLO800 = tested on: COLO800
# COLO829 = tested on: COLO829
# G361 = tested on: G361
# IPC-298 = tested on: IPC-298
# IST-MEL1 = tested on: IST-MEL1
# LB2518-MEL = tested on: LB2518-MEL
# LOXIMVI = tested on: LOXIMVI
# MEL-HO = tested on: MEL-HO
# MZ2-MEL = tested on: MZ2-MEL
# MeWo = tested on: MeWo
# RPMI7951 = tested on: RPMI7951
# RVH-421 = tested on: RVH-421
# SkMel28 = tested on: SkMel28
# SkMel2 = tested on: SkMel2
# SkMel30 = tested on: SkMel30
# UACC62 = tested on: UACC62
SMILES,cleaved PARP positive nuclei fraction (CBRC034) [%],cleaved PARP positive nuclei fraction (COLO792) [%],cleaved PARP positive nuclei fraction (COLO800) [%],cleaved PARP positive nuclei fraction (COLO829) [%],cleaved PARP positive nuclei fraction (G361) [%],cleaved PARP positive nuclei fraction (IPC-298) [%],cleaved PARP positive nuclei fraction (IST-MEL1) [%],cleaved PARP positive nuclei fraction (LB2518-MEL) [%],cleaved PARP positive nuclei fraction (LOXIMVI) [%],cleaved PARP positive nuclei fraction (MEL-HO) [%],cleaved PARP positive nuclei fraction (MZ2-MEL) [%],cleaved PARP positive nuclei fraction (MeWo) [%],cleaved PARP positive nuclei fraction (RPMI7951) [%],cleaved PARP positive nuclei fraction (RVH-421) [%],cleaved PARP positive nuclei fraction (SkMel28) [%],cleaved PARP positive nuclei fraction (SkMel2) [%],cleaved PARP positive nuclei fraction (SkMel30) [%],cleaved PARP positive nuclei fraction (UACC62) [%]
"O=C(/C=C/c1cccnc1)NCCCCC1CCN(C(=O)c2ccccc2)CC1 + C[C@@H](Oc1cc(-c2cnn(C3CCNCC3)c2)cnc1N)c1c(Cl)ccc(F)c1Cl [Crizotinib] (first compound 0.01 µM, partner dose 0.2 µM)",885,484,284,178,5280,234,108,53.9,24.9,151,525,55.6,62.9,100,21.1,883,17,36.1
"O=C(Nc1cc(C(F)(F)F)cc(C(F)(F)F)c1)c1cc(Cl)ccc1O + CC1(C)CCC(c2ccc(Cl)cc2)=C(CN2CCN(c3ccc(C(=O)NS(=O)(=O)c4ccc(N[C@H](CCN5CCOCC5)CSc5ccccc5)c(S(=O)(=O)C(F)(F)F)c4)cc3)CC2)C1 [ABT263] (first compound 0.016 µM, partner dose 0.4 µM)",162,223,43.8,48.3,86.1,299,156,52.2,124,170,124,329,158,158,83.5,121,163,222
"Cc1cn(-c2cc(NC(=O)c3ccc(C)c(Nc4nccc(-c5cccnc5)n4)c3)cc(C(F)(F)F)c2)cn1 [nilotinib] + OCc1c[nH]c2ccccc12 [Indole-3-carbinol] (first compound 0.2 µM, partner dose 0.8 µM)",37.4,57.3,123,70,116,144,145,110,46.4,150,145,311,28.7,164,68.5,205,67.4,254
"O=c1[nH]nc(Sc2ncc([N+](=O)[O-])s2)n1-c1ccc2c(c1)OCCO2 + CC(=O)c1c(C)c2cnc(Nc3ccc(N4CCNCC4)cn3)nc2n(C2CCCC2)c1=O [palbociclib] (first compound 0.2 µM, partner dose 0.04 µM)",35.5,41.7,131,82.3,81.1,148,78.3,235,33,245,136,55.1,84.1,115,37.5,39.1,120,127
"O=C(Nc1cc(C(F)(F)F)cc(C(F)(F)F)c1)c1cc(Cl)ccc1O + Cc1cc(Nc2cc(N3CCN(C)CC3)nc(/C=C/c3ccccc3)n2)n[nH]1 [ENMD2076] (first compound 0.016 µM, partner dose 0.04 µM)",104,94.8,101,150,60.6,28.2,72.2,145,65.3,22.1,73.7,163,28.4,57.1,91.9,121,73.3,50.9
"CC[C@]1(O)C[C@H]2CN(CCc3c([nH]c4ccccc34)[C@@](C(=O)OC)(c3cc4c(cc3OC)N(C=O)[C@H]3[C@@](O)(C(=O)OC)[C@H](OC(C)=O)[C@]5(CC)C=CCN6CC[C@]43[C@@H]65)C2)C1 [vincristine] + O=C(/C=C/c1cccnc1)NCCCCC1CCN(C(=O)c2ccccc2)CC1 [FK866] (first compound 0.0001 µM, partner dose 0.01 µM)",1300,279,258,300,1980,180,184,128,69.5,70.4,511,74.7,261,107,86.1,682,234,83.9

# Reference: the supplement of paper PMC4604168 (melanoma cell lines)
